## Percent effect of library compounds

Protein sequences, listed by entry. Tags and fused reporters are not part of them.
UniProt P9WFT3, whole entry: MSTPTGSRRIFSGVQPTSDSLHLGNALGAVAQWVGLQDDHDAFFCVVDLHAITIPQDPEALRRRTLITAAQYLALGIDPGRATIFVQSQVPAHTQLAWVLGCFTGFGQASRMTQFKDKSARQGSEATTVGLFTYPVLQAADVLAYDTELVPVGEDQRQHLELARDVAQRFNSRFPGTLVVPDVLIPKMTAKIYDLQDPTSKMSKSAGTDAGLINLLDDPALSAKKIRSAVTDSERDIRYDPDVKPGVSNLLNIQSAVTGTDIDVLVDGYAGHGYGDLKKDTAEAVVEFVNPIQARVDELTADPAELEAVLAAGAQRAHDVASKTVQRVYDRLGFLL

Source: ChEMBL document CHEMBL3988442, “University of Dundee, Small-Polar-MMV Screening Library” (2021).

Each number is a percent effect as filed. The controls that fix the scale are not given in the record; negative values are as filed. This is an unselected part of the compounds tested. Two or more numbers in one place are separate tests of the same structure; such repeats can differ widely.

MtTrpRS: 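Tryptophan-tRNA ligase, Mycobacterium tuberculosis (UniProt P9WFT3). Enzyme assay of tryptophanyl-tRNA synthetase; the read-out is not stated. Compounds at 10 µM. Direction is not recorded; retested compounds ran higher, which suggests that high means inhibition. About 65,000 compounds were tested under these conditions; 0.098% (about 64) showed 50% or more at least once.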
Leishmania in macrophages: 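Cell assay of Leishmania donovani living inside macrophages; the read-out is not stated. Concentration: 30 µM. The record gives no direction; compounds that gave an IC50 in retests scored well above the rest, so higher reads as stronger inhibition. About 69,000 compounds were tested under these conditions; 1.5% (about 1,000) showed 50% or more at least once.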

{"structure": "N#Cc1ccc(CNC(=O)NCCNC(=O)C2CCCC2)c(F)c1", "MtTrpRS": 19.36, "Leishmania in macrophages": 5.789}
{"structure": "COc1cc(C2CC(=O)Nc3c2c(=O)[nH]n3C2CCCCC2)ccc1O", "stereo": "stereo unspecified", "MtTrpRS": -4.465, "Leishmania in macrophages": 4.677}
{"structure": "Nc1ccc(C(=O)N2CCCC(c3nccn3Cc3cscn3)C2)cn1", "stereo": "stereo unspecified", "MtTrpRS": 0.942, "Leishmania in macrophages": 24.82}
{"structure": "CCOCC(O)CN1CCN(C(=O)c2ccc(OC)cc2)CC1", "stereo": "stereo unspecified", "MtTrpRS": 25.82, "Leishmania in macrophages": 16.19}
{"structure": "Cc1cccc(OCCC(=O)N(C)CCC#N)c1C", "MtTrpRS": 2.648, "Leishmania in macrophages": -1.022}
{"structure": "Cc1cccc(NS(=O)(=O)c2cc3c(c(C(=O)O)c2)OCCO3)c1", "MtTrpRS": -0.07337, "Leishmania in macrophages": -14.78}
{"structure": "COCCN1CC(O)CN(C(=O)c2cccc(C(F)(F)F)c2)CC1=O", "stereo": "stereo unspecified", "Leishmania in macrophages": -5.293}
{"structure": "Cc1csc(CNc2nc3c(s2)c(C)nn3C)n1", "MtTrpRS": 2.124, "Leishmania in macrophages": -17.74}
{"structure": "OC1(CNCc2ccc(F)c(C(F)(F)F)c2)CCOC1", "stereo": "stereo unspecified", "MtTrpRS": -2.381, "Leishmania in macrophages": 25.18}
{"structure": "CC(C)c1nc(CC(=O)N2CCN(C)CC2c2ccccc2)cs1", "stereo": "stereo unspecified", "MtTrpRS": 8.867, "Leishmania in macrophages": -9.153}
{"structure": "Cc1nnc([C@]23COC[C@H]2CN(Cc2nccs2)C3)o1", "MtTrpRS": -0.0969}
{"structure": "CS(=O)(=O)N1CCCC(Cc2ccnc(Nc3ccccn3)c2)C1", "stereo": "stereo unspecified", "MtTrpRS": -9.675, "Leishmania in macrophages": 17.29}
{"structure": "COc1cc2ccccc2cc1C(=O)N1CCCC(c2nncn2C)C1", "stereo": "stereo unspecified", "MtTrpRS": -5.643, "Leishmania in macrophages": 32.57}
{"structure": "Cc1noc(C)c1CCC(=O)N1CCCN(Cc2cscn2)CC1", "MtTrpRS": -0.1572, "Leishmania in macrophages": 11.3}
{"structure": "N#Cc1cccc(N2CCCC3(C2)CN(c2ncc(F)cn2)CCO3)n1", "stereo": "stereo unspecified", "MtTrpRS": -4.854}
{"structure": "Cc1ccc(CNC(=O)N2CCCC(NS(C)(=O)=O)C2)cc1", "stereo": "stereo unspecified", "MtTrpRS": -2.884, "Leishmania in macrophages": 2.953}
{"structure": "CC(C)Cc1ncc2c(n1)CN(c1cc(N)nc(N)n1)C2", "MtTrpRS": 1.009, "Leishmania in macrophages": -5.786}
{"structure": "CCOC(=O)CNC(=O)NCc1cccn1Cc1ccc(F)cc1", "MtTrpRS": 2.522, "Leishmania in macrophages": "11.77 & -30.27"}
{"structure": "CSCCC(Nc1nc(C)cc(C)n1)C(=O)NC1CCCC1", "stereo": "stereo unspecified", "MtTrpRS": 2.572, "Leishmania in macrophages": -8.835}
{"structure": "CN(C)CC1CN(Cc2cccc(C#N)c2)Cc2nccn2C1", "stereo": "stereo unspecified", "MtTrpRS": 4.181}
{"structure": "Cc1cnn(CC2CCCCN2C(=O)c2ccc(CN(C)C)cc2)c1", "stereo": "stereo unspecified", "MtTrpRS": -2.759, "Leishmania in macrophages": 19.05}
{"structure": "Cc1nnsc1C(=O)NCc1nn(C2CCCC2)c2c1CCCC2", "MtTrpRS": 1.483, "Leishmania in macrophages": -78.55}
{"structure": "Cc1ccc2nc(CNCCCN3CCCC3=O)cc(O)c2c1", "MtTrpRS": 3.099, "Leishmania in macrophages": -0.3666}
{"structure": "CC(c1cccc(Cl)c1)N(C)CCS(=O)(=O)CCC(N)=O", "stereo": "stereo unspecified", "MtTrpRS": -3.488, "Leishmania in macrophages": -16.88}
{"structure": "O=C(NCc1ccccc1CO)C1COc2ccccc21", "stereo": "stereo unspecified", "MtTrpRS": 1.923, "Leishmania in macrophages": 13.54}
{"structure": "CC(C)N(CC(N)=O)CC(=O)N(C1=CCCCC1)C1CC1", "MtTrpRS": -2.961, "Leishmania in macrophages": 0.3982}
{"structure": "CCC(CO)N(C/C(C)=C/c1ccco1)Cc1ccccn1", "stereo": "stereo unspecified", "MtTrpRS": 2.196, "Leishmania in macrophages": 3.364}
{"structure": "Cc1nc(C)n(CC2CN(Cc3ccccc3OC(C)C)CCO2)n1", "stereo": "stereo unspecified", "MtTrpRS": 0.05893, "Leishmania in macrophages": 28.68}
{"structure": "Cc1cc(C)n(CCNC(=O)c2cc(C3CC3)n[nH]2)n1", "MtTrpRS": 2.353, "Leishmania in macrophages": 12.88}
{"structure": "COc1ccccc1OCCCc1cc(C)nc(N)n1", "MtTrpRS": -5.734, "Leishmania in macrophages": 25.36}
{"structure": "COc1ccc2c(O)c(NC(=O)NCC3CC3)cnc2c1", "MtTrpRS": -0.08361, "Leishmania in macrophages": -30.24}
{"structure": "CC1CCCN(Cc2ccc(C(N)=O)cc2)C1", "stereo": "stereo unspecified", "MtTrpRS": 1.097, "Leishmania in macrophages": 21.2}
{"structure": "O=C(O)CC(O)(CC(=O)O)C(=O)O.[H][C@@]12CC[C@@](O)(c3ccccn3)[C@]1([H])CN(Cc1ccccn1)C2", "Leishmania in macrophages": "-4.913 & -11.7"}
{"structure": "Cc1ccc(CN2CCOC3(CCN(C(=O)C4CC=CC4)CC3)C2)cc1.O=C(O)C(F)(F)F", "Leishmania in macrophages": "3.244 & 13.89"}
{"structure": "Cc1nn(-c2ccc(F)cc2)c2[nH]nc(N)c12", "MtTrpRS": 7.143, "Leishmania in macrophages": 5.023}
{"structure": "Cc1noc([C@@H]2C[C@H]3OCC[C@H]3N(Cc3ccoc3)C2)n1", "MtTrpRS": -4.362}
{"structure": "COc1cccc(-c2noc(C3CCN(CC(N)=O)C3)n2)c1", "stereo": "stereo unspecified", "Leishmania in macrophages": "16.2 & 16.42"}
{"structure": "C[C@H](O)c1cnn(-c2ccccc2)c1", "MtTrpRS": -0.1023, "Leishmania in macrophages": -6.189}
{"structure": "Cc1nn(-c2ncnc3[nH]cnc23)c2c1C(CC(C)C)CC(=O)N2", "stereo": "stereo unspecified", "MtTrpRS": 3.641, "Leishmania in macrophages": 37.61}
{"structure": "Cc1nc(NS(=O)(=O)c2cc(Br)ccc2C)no1", "MtTrpRS": 2.72, "Leishmania in macrophages": 3.839}

Some entries from above, unchanged:

structure,MtTrpRS,Leishmania in macrophages
COc1cc(C2CC(=O)Nc3c2c(=O)[nH]n3C2CCCCC2)ccc1O (stereo unspecified),-4.465%,4.677%
Cc1nnsc1C(=O)NCc1nn(C2CCCC2)c2c1CCCC2,1.483%,-78.55%
COc1cc2ccccc2cc1C(=O)N1CCCC(c2nncn2C)C1 (stereo unspecified),-5.643%,32.57%
O=C(NCc1ccccc1CO)C1COc2ccccc21 (stereo unspecified),1.923%,13.54%
Cc1cc(C)n(CCNC(=O)c2cc(C3CC3)n[nH]2)n1,2.353%,12.88%